Measurements as given in PMC5778159 (Naunyn-Schmiedeberg's Archives of Pharmacology, 2017).
Counter-ions that a name gives are not always drawn.

Assays:
[1] = Pharmacokinetic study in rats after single i.v. or i.p. tianeptine, non-compartmental analysis; details: rat
Method: Male Wistar rats, 13–15 weeks of age and weighing between 200 and 220 g, were used in all the experiments. They were kept under conditions of constant temperature (21–25 °C) and a relative humidity of approximately 40–65% with a standard light/dark cycle. Animals were housed in the stainless steel cages with suspended wire-mesh floors and had free access to water and the commercial rodent chow.
Six rats were used in PK experiments, and 3 days prior to the experiment, rat jugular vein was cannulated allowing for the multiple blood sampling from a single animal. […] Plasma was harvested by centrifuging at 3000 r.p.m. for 10 min and stored at − 30°C until bioanalysis. Plasma samples (100 μL) were further processed as described in “Sample preparation” section.
(§1) Pharmacokinetic parameters were calculated by employing a non-compartmental approach, using Phoenix WinNonlin software v. 6.3 (Pharsight, USA). For i.v. administration, plasma concentration at time zero (C 0) was back-extrapolated using log-linear regression, while the maximum concentration after i.p. administration (C max) and the time to C max (t max) were obtained directly from the concentration-time data. The area under the mean plasma concentration versus time curve extrapolated to infinity (AUC0-inf) was estimated using the log/linear trapezoidal rule. AUMC0-inf was estimated by calculation of the total area under the first-moment curve by combining the trapezoid calculation of AUMC0-t and extrapolated area. The mean residence time (MRT) was calculated from AUMC0-inf/AUC0-inf. The terminal rate constant (λ z) was calculated by log-linear regression of the drug concentration data in the terminal phase and the terminal half-life (t 1/2) was calculated as 0.693/λ z. The systemic clearance (CL) was estimated from the administered dose divided by AUC0-inf. The volume of distribution at steady state (V ss) was calculated from D i.v.⋅AUMC/AUC^2, where D i.v is the dose administered i.v. in mg per kg of body weight. The concentration versus time profiles of the parent drug and metabolite following both routes of administration were also fitted simultaneously to the pharmacokinetic model with a metabolite compartment to obtain one set of parameters. During iteration process, the fraction of dose absorbed (F) was fixed to the value calculated using the following equation:1 F=AUC0−ti.p.∙Di.v./AUC0−ti.v.∙Di.p.
where AUC0-t is the area under the concentration versus time curve calculated to the last measured point and D is the dose administered.

[2] = PK model with a metabolite compartment fitted simultaneously to i.v. and i.p. rat plasma data
Method: as §1

[3] = Isolated perfused rat liver (IPRL) study, recirculating; details: mean ± SD
Method: (§2) Rat livers were perfused in situ using PS-1 perfusion system from Harvard Apparatus-Hugo Sachs Electronics (HA-HSE). […] The temperature of the perfusion medium was thermostatically controlled at 37 °C. In each experiment, the common bile duct was cannulated with PE-10 tubing. […] Experiments were carried out in a recirculating manner with the total volume of perfusate equal 200 mL. […] Samples of bile were collected in pre-weighed Eppendorf vials and measured by gravimetric volume at the end of perfusion period, assuming a density of 1. Perfusate was collected from the reservoir at 5 min intervals up to 45 min.
Non-compartmental estimates of hepatic pharmacokinetic parameters were determined from the outflow concentration-time profiles. The hepatic extraction ratio (ERH) was calculated according to the following equation:2 ERH=CLH/Q where CLH is a hepatic clearance (per gram of liver) and Q is a perfusate flow (per gram of liver).
The apparent hepatobiliary clearance (CLb,app) was calculated as the cumulative amount of drug excreted in bile divided by the AUC0-t of the drug in the perfusate.

[4] = Stability of analytes in rat plasma (bench top, freezer, freeze/thaw, autosampler); type: in vitro ADME; details: bench top 2 h, − 30°C 90 days, autosampler 10°C up to 24 h
Method: The stability of analytes was determined in the battery of tests according to the appropriate guidelines. Namely, the bench top stability (for 2 h), freezer stability (at − 30°C for 90 days), freeze/thaw stability and post preparative autosampler stability (at 10°C up to 24 h). Samples were considered to be stable when 85–115% of the initial concentrations were found.

[5] = Krebs Hanseleit buffer, 37 °C, perfusion model without a liver
Method: as §2

[6] = male, Wistar, in vivo, ip, 10 mg/kg
[7] = male, Wistar, in vivo, iv, 1 mg/kg
[8] = rat, i.v. and i.p. fitted simultaneously

CN1c2ccccc2C(NCCCCCCC(=O)O)c2ccc(Cl)cc2S1(=O)=O (centres unmarked) [Tianeptine, Tianeptine sodium salt]
t 0.5λz ([1]; after tianeptine i.p. 10 mg/kg, GM (90% CI), n = 3): 1.46 (1.018–2.085) h
bioavailability ([1]; male, Wistar, in vivo, 10 mg/kg, absolute bioavailability, tianeptine i.p. 10 mg/kg vs i.v. 1 mg/kg, Eq. 1): 69%
CL/F [1, 6]: 51.7 mL/min/kg
Cmax [1, 6]: 6650 ng/mL
Vd/F [1, 6]: 6.51 L/kg
clearance [1, 7]: 30.7 mL/min/kg
half-life [1, 7]: 69.6 min
Vd ([1]; male, Wistar, in vivo, iv, 1 mg/kg, V ss (volume of distribution at steady state), tianeptine i.v. 1 mg/kg, GM (90% CI), n = 3): 2.03 L/kg
Vd ([1]; male, Wistar, in vivo, iv, 1 mg/kg, V z, tianeptine i.v. 1 mg/kg, GM (90% CI), n = 3): 2.41 L/kg
absolute bioavailability ([1]; tianeptine i.p. 10 mg/kg vs i.v. 1 mg/kg, Eq. 1): 69.4%
C o ([1]; tianeptine i.v. 1 mg/kg, back-extrapolated, GM (90% CI), n = 3): 1.27 (0.86–1.9) mg/L
F (fraction absorbed) ([2]; i.p., fixed to the value calculated by Eq. 1): 0.694 fixed
half-life ([2]; male, Wistar, rat, in vivo): 15 min
k el ([2]; male, Wistar, rat, in vivo): 0.000776 s⁻¹
V C (volume of central compartment) ([2]; rat, i.v. 1 mg/kg and i.p. 10 mg/kg fitted simultaneously): 0.761 L/kg
k 12 (distribution rate constant) [2, 8]: 0.504 h⁻¹
k 21 (redistribution rate constant) [2, 8]: 0.628 h⁻¹
apparent hepatobiliary clearance (CLb,app) [3]: 0.2 ± 0.09 mL/min
stability in rat plasma [4]: no stability related problems
stability under perfusion conditions [5]: no detectable degradation products
